Among the data in PubChem BioAssay AID493014 (National Center for Advancing Translational Sciences (NCATS), 2011) are AC50 values, retold here.

This test in a line: qHTS Assay to Find Inhibitors of Chronic Active B-Cell Receptor Signaling. As to conditions: ABC-DLBCL IkBa-CBG/CBR reporter, luminescence ratio (green luciferase fused to IkBa over red control in TMD8 lymphoma cells), 4 h. In outline:
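Doxycycline induced both beetle luciferases in TMD8 lymphoma cells; IKK-driven degradation limits the IkappaBalpha-fused green signal, while red luminescence normalises for cell number and nonspecific effects. Compounds tested up to 46 uM, 4 hrs.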

The mark [1] stands for this setting: measured here: CBR red luminescence, cell number.
[2] abbreviates: measured here: IkBa-CBG green luminescence.

Molecules are shown by their SMILES. This is one part of the list. Shown are side measurements of this screen, not its main read-out; they come without a call. Most of these compounds were active or inconclusive in the main read-out, so they are no random draw. Potencies come from curve fits of mixed quality, noted in brackets.

One may read the AC50 as the concentration at which the activity in the assay is half-maximal. On to `O=C(Nc1ccc2oc(-c3ccccc3)nc2c1)c1ccco1`, for which the AC50 under setting [1] is 0.291 µM [rising, full curve, poor fit]. On the same count and under the same terms, for `O=C(CCN1CCC(c2cccs2)=N1)c1cccs1` the value was 35.5 µM [falling, single point]; for `COc1ccc(NC(=O)c2cccc(N3C(=O)C4C5CCC(C5)C4C3=O)c2)cc1` (stereo unspecified), 12.6 µM [falling, partial curve, poor fit]. As to `Cc1cccc(OCC(=O)NC(=S)NNC(=O)c2ccncc2)c1`, the AC50 under setting [1] was 3.55 µM [rising, partial curve, poor fit]. On the same count and under the same terms, for `COC(=O)c1c(NC(=O)C2CC2)sc2c1CCCC2` the value was 13 µM [rising, partial curve, poor fit].

As for `CN1CCc2cc(Cl)c(O)cc2[C@@H](c2ccccc2)C1`, the half-maximal activity concentration (AC50) under setting [1] was 35.5 µM [falling, single point]. `Cn1c(N)c(C(=O)Nc2ccc(-c3ccccc3)cc2)sc1=S`: under setting [1], the half-maximal activity concentration (AC50) is 20 µM [falling, single point]. With `O=C(NCCCN1CCOCC1)c1cc(-c2ccc(F)cc2)no1`, the AC50 under setting [1] was 5.62 µM [falling, partial curve]. Take `O=c1cc(N2CCCCC2)c2ccccc2o1`: under setting [1], the AC50 was 35.5 µM [falling, partial curve, poor fit].

`Cc1nc(NC(N)=S)sc1C(=O)Nc1ccccc1`: under setting [1], the AC50 is 12.6 µM [falling, partial curve, poor fit]. On the same count and under the same terms, for `CCCNC(=O)c1onc(CSc2ccccc2)c1C(=O)NCCC` the value was 16.4 µM [falling, single point]; for `CCN1/C(=C/c2ccc3cc(C)ccc3[n+]2CC)Sc2ccccc21`, 18.4 µM [falling, single point]; for `c1csc(Cn2nnnc2CN2CCN(c3nc4ccccc4s3)CC2)c1`, 35.5 µM [falling, single point]. The same measure, in the same setting: as for `COCCCNC(=O)c1ccc2c(c1)nc(C)n2-c1cccc(C)c1`, the figure is 35.5 µM [falling, single point]; as for `CC(C)C(=O)Nc1ccc2nn(-c3ccccc3)nc2c1`, 0.0891 µM [rising, full curve, poor fit]. With `CC(C)[C@@H]1CC[C@@H](C)C[C@H]1OC(=O)C[n+]1cc(-c2ccc(Cl)cc2)n2c1CCCCC2`, the AC50 under setting [1] was 7.94 µM [falling, partial curve, poor fit]. Same read-out and setting: for `CCn1c(SCC(=O)c2ccccc2)nc2c(c1=O)SC(C)C2` (stereo unspecified) the value was 2.06 µM [falling, partial curve, poor fit]; for `O=C(Nc1ccc(F)cc1F)Nc1ccc(F)cc1F`, 20 µM [falling, single point]. The same measure, in the same setting: as for `Cc1cc2cc(CNC(=S)Nc3ccc(OC(F)(F)F)cc3)ccc2n1C`, the figure is 10.3 µM [rising, partial curve]; as for `Cc1ccccc1Cn1cc(/C=N/n2cnnc2)c2ccccc21`, 6.51 µM [falling, single point]. `COc1ccc(NC(=O)Nc2ccc3c(c2)C(=O)N([C@@H](C)CO)C[C@@H](C)[C@@H](CN(C)S(=O)(=O)c2cn(C)cn2)O3)cc1`: under setting [1], the AC50 was 20.6 µM [rising, single point]. As to `Cc1cc2nccc(-c3ccc(Cl)cc3Cl)n2n1`, the AC50 under setting [1] is 35.5 µM [rising, single point]. As for `COc1ccc(C2=Nn3c(nnc3C3CCCCC3)SC2)cc1OC`, the AC50 is, setting by setting: under setting [1], 0.366 µM [rising, partial curve, poor fit]; under setting [2], 0.58 µM [falling, full curve]. Take `O=C(O)CNC(=O)C1COc2ccccc2O1` (stereo unspecified): under setting [1], the concentration at half-maximal activity (AC50) was 0.0517 µM [rising, full curve, poor fit]. Turning to `CC(=O)Nc1ccc(-c2csc(NC(=O)C3CCN(S(=O)(=O)c4cccs4)CC3)n2)cc1`, the concentration at half-maximal activity (AC50) under setting [1] is 29.1 µM [falling, partial curve, poor fit]. `O=C(CN(CCc1ccccc1)C(=O)c1csnn1)NC1CCCC1`: the concentration at half-maximal activity (AC50) under setting [1] was 15.8 µM [rising, partial curve, poor fit]. For the compound `O=C(CN1C(=O)NC2(CCCCCCC2)C1=O)Nc1ccc(Br)cc1`, under setting [1], the AC50 was 9.2 µM [falling, partial curve]. As to `COc1ccc(-n2c(Cc3cccn3C)nnc2SCC(=O)N2CCCc3ccccc32)cc1`, the AC50 under setting [1] was 10 µM [falling, partial curve].

As to `O=C(/C=C/Nc1cccc([N+](=O)[O-])c1)c1cccs1`, the AC50 under setting [1] is 11.6 µM [falling, partial curve, poor fit]. Take `Oc1ccc(-c2csc(Nc3ncccn3)n2)cc1`: the concentration at half-maximal activity (AC50) under setting [1] is 1.12 µM [falling, full curve]. For the compound `O=c1c2cc(NC(=S)NCCCN3CCC(Cc4ccccc4)CC3)ccc2nc2n1CCCCC2`, under setting [1], the concentration at half-maximal activity (AC50) was 15.8 µM [falling, single point].

Take `CN1CCCC1CCNc1ccc2oc3ccccc3c(=O)c2c1` (stereo unspecified): the half-maximal activity concentration (AC50) under setting [1] is 10 µM [falling, partial curve, poor fit]. For the compound `CCN(CC(=O)Nc1ccc2c(c1)OCCO2)C(=O)CC1CCCC1`, the concentration at half-maximal activity (AC50) under setting [1] is 0.58 µM [rising, partial curve, poor fit]. Same read-out and setting: for `Cc1cc(OCCn2cc(/C(N)=N/O)c3ccccc32)ccc1Cl` the value was 1.12 µM [rising, full curve, poor fit]. Regarding `COc1ccc(S(=O)(=O)/N=C2\C=C(Nc3ccc(O)cc3)C(=O)c3ccccc32)cc1`, the AC50 under setting [1] is 1.12 µM [falling, full curve]. Regarding `Cc1cc2nc(-c3ccc(SCc4ccccn4)nc3)[nH]c2cc1C`, the AC50 under setting [1] was 11.2 µM [falling, partial curve, poor fit].

Regarding `NC(=O)Cc1ccc(Nc2nnc(-c3ccccc3)c3ccccc23)cc1`, the half-maximal activity concentration (AC50) under setting [1] was 29.1 µM [falling, single point].

As for `COc1ccc(CN2CCN(C(=O)c3cccc4ccccc34)CC2)cc1Br`, the half-maximal activity concentration (AC50) under setting [1] was 15.8 µM [falling, partial curve, poor fit]. Regarding `Cc1ccc(NC(=O)c2[nH]cnc2C(=O)NN)cc1`, under setting [1], the AC50 is 35.5 µM [falling, single point]. In the case of `COc1cccc(C(=O)N2CCN(Cc3cccc(F)c3)CC2)c1`, the AC50 reads like this: under setting [1], 4.61 µM [falling, single point]; under setting [2], 3.26 µM [rising, partial curve, poor fit].

On to `O=C(Nc1ccc2c(c1)OCO2)c1cc(C2CC2)on1`, for which the half-maximal activity concentration (AC50) under setting [1] is 13 µM [falling, single point]. With `COC(=O)c1sccc1NC(=O)COc1ccc(C)cc1`, the AC50 under setting [1] is 0.447 µM [falling, full curve, poor fit].

For `NS(=O)(=O)c1ccc(CCNc2ccc(C(F)(F)F)cn2)cc1`, the AC50 under setting [1] was 35.5 µM [rising, single point]. With `COc1ccccc1NC(=O)CSc1nnc(Cn2cnc3ccccc32)n1C`, the AC50 under setting [1] was 14.6 µM [rising, partial curve, poor fit]. As to `CCOC(=O)CNC(=O)CSc1cc(C)nc2ccc(OC)cc12`, the AC50 under setting [1] is 3.16 µM [rising, single point]. In the case of `CCC(c1nnnn1CCc1ccccc1)N(Cc1ccco1)Cc1cc2cccc(C)c2[nH]c1=O` (stereo unspecified), the concentration at half-maximal activity (AC50) under setting [1] was 13 µM [falling, partial curve, poor fit].

As for `COc1ccc(/C=C/c2ccc3cccc(O)c3n2)c(OC)c1OC`, the concentration at half-maximal activity (AC50) under setting [2] is 20 µM [falling, single point]. `O=C(N/N=C/c1cc(Br)cs1)c1c[nH]c2ccccc12`: the AC50 under setting [1] is 7.08 µM [falling, partial curve, poor fit]. In the case of `NC(N)=NC1=NC(=O)C(Cc2ccccc2)S1` (stereo unspecified), the concentration at half-maximal activity (AC50) under setting [1] is 3.55 µM [rising, full curve, poor fit]. With `CN(C(=O)Cn1nnc(-c2ccc(F)cc2)n1)C1CCS(=O)(=O)C1` (stereo unspecified), under setting [1], the half-maximal activity concentration (AC50) is 1.64 µM [falling, partial curve, poor fit]. Still for that read-out and setting: for `O=C1C=C(c2cc(C(F)(F)F)cc(C(F)(F)F)c2)C[C@@H](c2ccc3c(c2)OCO3)C1` the value was 29.1 µM [rising, single point].

As for `Cc1cccc(Nc2nnc(SCC(=O)Nc3ccc(C(=O)O)cc3)s2)c1`, the AC50 under setting [1] was 12.6 µM [falling, single point]. On the same count and under the same terms, for `Fc1ccc(CNC(=S)Nc2ccc(Cl)cc2)cc1` the value was 17.8 µM [rising, partial curve, poor fit].

In the case of `CSc1ccc(C(c2c(C)[nH][nH]c2=O)c2c(C)[nH][nH]c2=O)cc1`, the concentration at half-maximal activity (AC50) under setting [1] was 3.16 µM [falling, full curve, poor fit].

Take `CCN(CC(=O)NCc1ccc(F)cc1)C(=O)COc1ccc(C)c(C)c1`: under setting [1], the AC50 was 0.103 µM [rising, full curve, poor fit]. Take `COc1ccc(/C(C)=N/NC(=O)c2ccccc2OCc2ccccc2)c(OC)c1`: under setting [1], the concentration at half-maximal activity (AC50) was 11.2 µM [falling, partial curve]. On to `COCCCNC(=O)C(=O)Nc1ccc2c(c1)N(S(=O)(=O)c1cccs1)CCC2`, for which the half-maximal activity concentration (AC50) was 2.06 µM [rising, partial curve, poor fit] under setting [1] and 16.4 µM [falling, partial curve] under setting [2].

As to `Cc1ccc(OCc2cc(C(=O)N(C)Cc3cc(C4CC4)n[nH]3)no2)cc1C`, the half-maximal activity concentration (AC50) under setting [1] is 17.8 µM [falling, single point]. Still for that read-out and setting: for `CC(O)CN(C)CC/C=C1/c2ccccc2CSc2ccccc21` (stereo unspecified) the value was 29.1 µM [falling, partial curve, poor fit].

On to `O=C(COC(=O)C1CC1)Nc1ccc(Cl)cc1Cl`, for which the half-maximal activity concentration (AC50) under setting [1] was 2.59 µM [rising, full curve, poor fit].

As for `COC(=O)c1cc2c(s1)-c1ccc(OC)cc1CC2`, under setting [1], the half-maximal activity concentration (AC50) is 10 µM [rising, partial curve, poor fit]. Take `CC(C)(C)N(NC(=O)Nc1ccc(Cl)cc1)C(=O)c1ccccc1`: the AC50 under setting [1] was 15.8 µM [rising, single point]. With `COc1ccc(-c2nc3ccccc3c(=O)n2NC(=O)c2cccnc2Cl)cc1OC`, the AC50 under setting [1] was 25.9 µM [rising, single point].
